Source: patent US20140017259A1 (TAKIS S R L, published 2014)
Results are given in words; binding and its absence hold for the method and conditions named. Some entries that bind do so weakly or less than the wild type. One block for each binder: values may come before it.

Protein sequences, listed by entry. Tags and fused reporters are not part of them. Lines headed by an entry give the natural chain unless they say otherwise; changes in a name come on top. Residues count along the entry.
UniProt P21860: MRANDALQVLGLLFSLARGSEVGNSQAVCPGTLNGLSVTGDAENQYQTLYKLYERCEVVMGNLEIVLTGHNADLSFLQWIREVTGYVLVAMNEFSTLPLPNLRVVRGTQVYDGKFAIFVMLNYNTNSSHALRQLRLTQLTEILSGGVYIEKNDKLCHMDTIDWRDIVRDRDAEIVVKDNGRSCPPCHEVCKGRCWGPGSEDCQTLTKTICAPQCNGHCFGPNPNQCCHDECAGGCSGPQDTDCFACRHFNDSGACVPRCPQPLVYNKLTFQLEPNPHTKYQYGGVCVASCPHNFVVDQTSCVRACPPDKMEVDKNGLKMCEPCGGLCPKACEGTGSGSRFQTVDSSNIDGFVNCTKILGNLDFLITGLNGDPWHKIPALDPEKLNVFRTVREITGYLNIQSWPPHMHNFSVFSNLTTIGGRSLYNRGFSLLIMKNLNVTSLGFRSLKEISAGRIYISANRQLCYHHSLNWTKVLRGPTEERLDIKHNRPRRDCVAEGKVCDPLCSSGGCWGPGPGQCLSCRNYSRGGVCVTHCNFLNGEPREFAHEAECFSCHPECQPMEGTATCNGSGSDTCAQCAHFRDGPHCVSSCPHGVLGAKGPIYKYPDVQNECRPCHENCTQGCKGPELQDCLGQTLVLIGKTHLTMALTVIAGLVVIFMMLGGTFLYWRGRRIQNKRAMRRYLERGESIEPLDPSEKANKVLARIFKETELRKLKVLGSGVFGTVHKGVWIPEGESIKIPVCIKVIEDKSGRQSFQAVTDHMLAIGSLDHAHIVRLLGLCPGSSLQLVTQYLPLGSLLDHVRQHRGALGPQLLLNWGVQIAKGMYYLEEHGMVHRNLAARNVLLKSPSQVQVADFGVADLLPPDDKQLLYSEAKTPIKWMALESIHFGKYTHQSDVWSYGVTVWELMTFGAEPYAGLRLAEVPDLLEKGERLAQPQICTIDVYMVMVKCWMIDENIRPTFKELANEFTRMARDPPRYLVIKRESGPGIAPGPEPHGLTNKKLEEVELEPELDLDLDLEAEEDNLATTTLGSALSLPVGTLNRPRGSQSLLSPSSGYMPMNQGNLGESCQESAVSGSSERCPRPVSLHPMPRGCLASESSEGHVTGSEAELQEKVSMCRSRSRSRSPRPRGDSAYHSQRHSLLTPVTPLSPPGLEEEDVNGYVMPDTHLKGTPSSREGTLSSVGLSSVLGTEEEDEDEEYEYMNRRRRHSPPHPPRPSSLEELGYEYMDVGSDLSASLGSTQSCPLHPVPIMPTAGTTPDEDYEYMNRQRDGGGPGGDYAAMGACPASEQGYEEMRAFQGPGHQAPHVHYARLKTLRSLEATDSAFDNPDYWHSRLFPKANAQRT
human HER3: residues 20-1342 of P21860
protein HER3 (human HER3, ELISA of Example 12): residues 20-643 of P21860

What was measured:
human HER3 (human) = human HER3 (human) (UniProt P21860); test: flow cytometry on CHO cells transiently transfected with human HER3, antibody at 10 µg/ml
[1] = target: protein HER3 (human HER3, ELISA of Example 12) (human) (UniProt P21860); test: ELISA, titration of IgG
[2] = target: protein HER3 (human HER3, ELISA of Example 12) (human) (UniProt P21860); test: HER3 ELISA, titration of IgG from 5 to 0.04 per well (Example 12), OD405 [9 B]

binding (human HER3 (human)): binds
B1: Antibody A3 (antibody, V domains shown)
VH: QVTLKESGPGKLQPSQTLSLTCSFSGFSLSTYGMGVGWIRQPLGKGLEWLANIWWNDDKYYNSALKSRLTISKDTSNNQVFLKISSVDTADAATYYCVQIANPYWYFDVWGAGTTVTVSS
VL: DVLMTQTPLSLPVSLGDQASISCRSSQSIVHSYGNTYLEWYLQKPGQSPKLLIYRVSNRFSGVPDRFSGSGSGTDFTLKISRVEAEDLGVYYCFQGSHVPFTFGTGTKLEIKR
notes: Murine monoclonal IgG from a hybridoma of BALB/c mice immunised with HER3 H584F DNA; also called A3 monoclonal antibody

binding [1]: binds
binding [2]: binds
binding (human HER3 (human)): binds
B2: Antibody A4 (antibody, V domains shown)
VH: QVQLQQPGSELVRPGASVKLSCKASGYTFTIFWIHWVKQRPGQGLEWIGNIYPGSGGTNYDEKFKSKATLTVDTFSSTAYMQLSSLTSEDSAVYYCTRWGTGKDYWGQGTTLKVSS
VL: QIVLTQSPAIMSASPGEKVTMTCRARSSVSSSYLHWYQQKPGSSPKLWIYSTSNLALGVPARFSGSGSGTSYSLTISSVEAEDAATYYCQQYDSSPFTFGTGTKLEIKR
notes: Murine monoclonal IgG with a kappa light chain, from a hybridoma; also called murine A4; A4 monoclonal antibody

binding [1]: binds
binding [2]: binds
B3: humanized A4 (antibody, V domains shown)
VH: QVQLVQSGAEVKKPGASVKVSCKASGYTFTIFWMHWVRQAPGQGLEWMGNIYPGSGGTNYAQKFQGRVTMTRDTSISTAYMELSRLRSDDTVVYYCTRWGTGKDYWGQGTLVTVSS
VL: EIVLTQSPGTLSLSPGERATLSCRASSSVSSSYLHWYQQKPGQAPRLLIYSTSNRATGIPDRFSGSGSGTDFTLTISRLEPEDFAVYYCQQYDSSPFTFGQGTKLEIKR
